Data reported in PubChem BioAssay AID493014 (National Center for Advancing Translational Sciences (NCATS), 2011).
The list shows a part of the results. Further columns of the screen follow, without active or inactive calls. The list favours compounds with an active or inconclusive main result. Potencies come from curve fits of mixed quality, noted in brackets.

Assay: qHTS Assay to Find Inhibitors of Chronic Active B-Cell Receptor Signaling
Conditions: ABC-DLBCL IkBa-CBG/CBR reporter, luminescence ratio (green luciferase fused to IkBa over red control in TMD8 lymphoma cells), 4 h
How it was run: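 Cell line TMD8 (human ABC DLBCL), stably expressing tet-inducible CBG68-IkBa fusion and CBR; IMDM/0.5% FBS; cpd up to 46 uM; dox induction, 4 h, 37C/5% CO2; dual luminescence; green/red ratio; MG132 control.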

[1] = measured here: CBR red luminescence, cell number
[2] = measured here: IkBa-CBG green luminescence

SMILES | AC50 [1] | AC50 [2]
CCc1ccccc1Nc1nc(N)nc(COC(=O)CCS(=O)(=O)c2ccccc2)n1 | 16.4 µM [falling, single point] | –
COc1ccc(/C=C2\CCC(C3CCCC3)C2=O)c(OC)c1 (configuration not stated) | 0.355 µM [rising, full curve, poor fit] | –
Cc1ccc(-c2nnc(-c3cccs3)o2)cc1 | 0.501 µM [rising, full curve] | –
N#Cc1cc2c([nH]c1=S)CCCC2 | 4.61 µM [falling, partial curve] | –
O=C(c1cc(Cl)cc(Cl)c1)N1CCOCC1 | 14.6 µM [rising, partial curve, poor fit] | –
C=CCOc1c(Cl)cc(CNc2ccc(N(C)C)cc2)cc1OC | 14.1 µM [rising, partial curve] | 20 µM [falling, single point]
COc1ccc(C(=O)NC(=C(Cl)Cl)S(=O)(=O)c2ccc(C)cc2)cc1 | 1 µM [falling, full curve, poor fit] | –
COc1cc2c(cc1NC(=O)CSc1cccc[n+]1[O-])oc1ccccc12 | 18.4 µM [falling, partial curve, poor fit] | –
O=c1[nH]nc(CNc2cccc(C(F)(F)F)c2)c2ccccc12 | 1.41 µM [rising, partial curve, poor fit] | –
O=C(O)CCn1cc(/C=C\C(=O)c2ccc(Cl)cc2)c(-c2cccc(Br)c2)n1 | 14.6 µM [falling, partial curve, poor fit] | –
O=C1c2ccccc2-c2onc3ccc(NCCCn4ccnc4)c1c23 | 29.1 µM [falling, single point] | –
Nc1ccc2nc3c(=O)n(CCc4ccccc4)c(=O)[nH]c3nc2c1 | 11.2 µM [falling, partial curve] | –
Cn1c(CCN2CCCCC2)nc2cc(NS(=O)(=O)c3ccccc3)ccc21 | 35.5 µM [falling, single point] | –
CCOc1ccc(NC(=S)NC(=O)c2c(Br)cnn2C)c([N+](=O)[O-])c1 | 1.64 µM [rising, partial curve] | –
Cc1ccc(/C=N/NC(=O)Cc2ccc(O)cc2)s1 | 28.2 µM [falling, single point] | –
Cc1c(C#N)c(=O)c(-[n+]2ccccc2)c([S-])n1-c1ccc(Cl)cc1 | 11.2 µM [rising, partial curve, poor fit] | –
CCOCCn1c(CN(C)Cc2ccccc2)nc2c1c(=O)n(C)c(=O)n2C | 8.91 µM [falling, partial curve, poor fit] | –
CC(C)CCN1CC(O)=C(c2nc3ccccc3[nH]2)C1=N | 6.51 µM [falling, single point] | –
O=C(O)Cc1ccc(Nc2cnn(C34CC5CC(CC(CC(=O)O)(C5)C3)C4)c(=O)c2Cl)cc1 | 0.1 µM [rising, full curve, poor fit] | –
Cc1c(NC(=O)c2c(O)c3ccccc3n(C)c2=O)c(=O)n(-c2ccccc2)n1C | 12.6 µM [falling, partial curve] | –
CC[C@@H](C)[C@H](CN[C@H](CNC)C(C)C)NC[C@@H](C)c1ccc(CC(C)C)cc1 | 7.94 µM [falling, partial curve, poor fit] | –

SMILES | AC50 [1] | AC50 [2]
Cc1ccc(C(=O)NC2=NCCS2)cc1Cl | 1.26 µM [rising, full curve, poor fit] | –
Cc1[nH]c2ccccc2c1/C=N/Nc1nc(Nc2ccc(F)cc2)nc(N2CCOCC2)n1 | 16.4 µM [falling, partial curve] | –
O=C(N/N=C/c1ccc2ncccc2c1)c1ccco1 | 2 µM [falling, full curve] | –
O=C(O)c1ccn(COc2ccc(Br)cc2)n1 | 0.708 µM [rising, full curve, poor fit] | –
O=c1nccc(NCc2ccco2)[nH]1 | 3.16 µM [falling, partial curve, poor fit] | –
Cc1occc1C(=O)NNC(=O)CN1C(=O)NC2(CCCCC2)C1=O | 16.4 µM [rising, partial curve, poor fit] | –
CCOc1ccc(Oc2ccc(S(=O)(=O)N3CCOCC3)cc2NC(=O)CCNC(C)=O)cc1 | 32.6 µM [rising, partial curve, poor fit] | –
O=C(NC(=S)Nc1ccc([N+](=O)[O-])cc1O)C1CCCCC1 | 3.16 µM [falling, full curve] | –
C=C(C)/C=N/NC(=S)Nc1ccc(S(=O)(=O)N2CCOCC2)cc1 | 35.5 µM [falling, single point] | –
Cc1nc2sc3c(O)cc(=O)[nH]c3c2c(C)c1C | 2.31 µM [falling, single point] | –
NC(=S)N/N=C/c1ccc(-c2ccccc2)o1 | 0.631 µM [rising, full curve, poor fit] | 31.6 µM [falling, single point]
N#CCSc1nc2sccc2c(=O)n1-c1ccccc1 | 1.58 µM [rising, full curve] | 2.24 µM [falling, partial curve, poor fit]
Cc1sc2ncnc(NS(=O)(=O)c3ccc(Cl)cc3)c2c1C | 9.2 µM [falling, partial curve] | –
O=C(Nc1ccc(Cc2ccncc2)cc1)c1ccc(Br)o1 | 1.46 µM [falling, full curve] | –
CCc1nc(SCCO)c2oc3ccccc3c2n1 | 35.5 µM [rising, partial curve, poor fit] | –
CC(=O)c1c(C)oc2c1C(=O)c1ccccc1C2=O | 0.517 µM [rising, partial curve, poor fit] | –
Cc1nc2cc(NC(=O)NCc3ccco3)ccc2n1C | 18.4 µM [falling, partial curve] | –
O=C(CSc1nc2[nH]ncc2c(=O)[nH]1)N1CCCCC1 | 0.00461 µM [falling, full curve, poor fit] | –
CC1=CC2=NC(=O)/C(=C\c3cccn3CCOc3cc(C)ccc3C)C(=N)N2O1 | 20.6 µM [falling, single point] | 29.1 µM [rising, partial curve, poor fit]
CC(Sc1ccccc1)C(=O)N1CCN(S(=O)(=O)c2ccccc2C(F)(F)F)CC1 (configuration not stated) | 6.31 µM [rising, single point] | –
Cc1cc(C(=O)COC(=O)c2ccc3c(c2)NC(=O)CS3)c(C)n1CCc1ccc(Cl)cc1 | 28.2 µM [falling, partial curve, poor fit] | –

SMILES | AC50 [1] | AC50 [2]
CCNC(=O)CC1C(=O)N(c2ccccc2)C(=O)N1CCOC (configuration not stated) | 6.31 µM [rising, single point] | –
O=C(Cc1ccsc1)N1CCN(S(=O)(=O)c2cc(C(F)(F)F)cc(C(F)(F)F)c2)CC1 | 4.47 µM [falling, partial curve, poor fit] | –
Cc1cc(C(=O)COC(=O)CCc2nc3ccccc3s2)c(C)n1C | 16.4 µM [rising, single point] | –
O=c1[nH]c2ccccc2c2nc3ccccn3c12 | 7.08 µM [falling, partial curve] | –
Cc1c(C(=O)N(Cc2cccc(Br)c2)C2CCS(=O)(=O)C2)oc2ccccc12 (configuration not stated) | 3.16 µM [falling, single point] | –
C/C=C\C(=O)Nc1cccc(C2=NOC3(C2)C[C@@H](C(N)=O)N(C(=O)c2ccccc2)C3)c1 (some centres not stated) | 12.6 µM [rising, single point] | –
O=C(O)[C@H](Cc1ccccc1)NC(=O)C(c1ccccc1)(c1ccccc1)c1ccccc1 | 0.501 µM [falling, full curve, poor fit] | –
COc1ccc2cc(C3(C)NC(=O)NC3=O)ccc2c1 (configuration not stated) | 35.5 µM [rising, single point] | –
O=C(/C=C/c1ccccc1)N(c1ccccn1)C1CCCCC1 | 6.51 µM [rising, full curve, poor fit] | –
CN(CC(=O)NCc1ccncc1)S(=O)(=O)c1cc(Cl)ccc1Cl | 0.891 µM [rising, full curve] | –
Cc1cc(Cl)ccc1OCC(=O)NNC(=O)c1ccco1 | 6.31 µM [rising, single point] | –
CC1CN(c2cc3nccnc3cc2F)CC(C)O1 (configuration not stated) | 2.31 µM [rising, partial curve, poor fit] | –
O=C(CN1CCN(c2ccc(F)cc2)CC1)Nc1ccccc1C(=O)NCCc1ccccc1 | 6.51 µM [rising, single point] | –
CCN(CC)c1ccc(Nc2nc(N3CCOCC3)c3ccccc3n2)cc1 | – | 3.26 µM [rising, partial curve, poor fit]
CCC(=O)N1CCN(c2ccccc2NC(=O)COc2cc(C)ccc2C(C)C)CC1 | 29.1 µM [falling, single point] | –
Cc1c(CCC(C)C)c(=O)n2c([nH]c3ccccc32)c1C#N | 1.84 µM [rising, full curve] | –
Clc1ccc2c(c1)[C@H]1OCC[C@H]1[C@@H](c1ccco1)N2 | – | 18.4 µM [rising, partial curve, poor fit]
Cc1cccc(C(=O)Nc2ccc(C(=O)N/N=C/c3cccnc3)cc2)c1 | 6.31 µM [falling, full curve, poor fit] | –
COc1ccc(NC(=O)C(=O)c2cn(CC(=O)N3CCOCC3)c3ccccc23)cc1OC | 7.08 µM [falling, partial curve] | –
O=C(NCc1ccco1)c1ccc2c(c1)C(=O)N(C1CCCCC1)C2=O | 3.16 µM [rising, single point] | –
Cc1cc2nc(-c3ccc[nH]c3=O)[nH]c2cc1C | 7.94 µM [falling, partial curve] | –

Shown as tab-separated lines: part of the list above.
SMILES	AC50 [1]	AC50 [2]
O=C(/C=C/c1ccccc1)N(c1ccccn1)C1CCCCC1	6.51 µM [rising, full curve, poor fit]	–
CN(CC(=O)NCc1ccncc1)S(=O)(=O)c1cc(Cl)ccc1Cl	0.891 µM [rising, full curve]	–
Cc1cc(Cl)ccc1OCC(=O)NNC(=O)c1ccco1	6.31 µM [rising, single point]	–

Reformatted tab-delimited: part of the list above.
SMILES	AC50 [1]	AC50 [2]
CCNC(=O)CC1C(=O)N(c2ccccc2)C(=O)N1CCOC (configuration not stated)	6.31 µM [rising, single point]	–
O=C(Cc1ccsc1)N1CCN(S(=O)(=O)c2cc(C(F)(F)F)cc(C(F)(F)F)c2)CC1	4.47 µM [falling, partial curve, poor fit]	–
Cc1cc(C(=O)COC(=O)CCc2nc3ccccc3s2)c(C)n1C	16.4 µM [rising, single point]	–
